Values of other authors in patent US20250082608A1, “TREATMENT AND PREVENTION OF GLOMERULAR DISEASE” (Singapore Health Services PTE LTD., priority 2021, published 2025).
At least one structure is not confirmed: it was looked up by name or label, or the drawing left a doubt.

Key:
Col4a3−/− mice = settings: mouse, in vivo; cited from earlier work
[1] = system: rheumatoid synovial cells; settings: upon treatment; cited from earlier work

Row | SMILES | caspase activity (Col4a3−/− mice) | expression of IL-11 [1]
1 | CCCc1nc(C(C)(C)O)c(C(=O)O)n1Cc1ccc(-c2ccccc2-c2nnn[nH]2)cc1 [Olmesartan] | reduced | –
2 | C[C@@H]1C[C@H]2[C@@H]3CCC4=CC(=O)C=C[C@]4(C)[C@@]3(F)[C@@H](O)C[C@]2(C)[C@@]1(O)C(=O)CO [dexamethasone] | – | reduction in the expression of IL-11
